Some of the results follow. Repeats are few or missing, and single values can be far off.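 The apoptosis fraction was the count of cleaved-PARP antibody-stained nuclei relative to all DNA-stained nuclei, imaged in 1,536-well plates. Screening doses were set so most cells survived, and baseline and induced cleaved-PARP levels vary greatly across cell lines.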
How the values were obtained:
Assay in all cases: cleaved PARP positive nuclei fraction relative to DMSO control; melanoma cells; higher = more apoptosis
Details in all cases: library dose: low library concentration; 72 h
WM115 = test system: WM115
WM1716 = test system: WM1716
WM1745 = test system: WM1745
WM3526 = test system: WM3526
WM3619 = test system: WM3619
WM451Lu = test system: WM451Lu

Compound | cleaved PARP positive nuclei fraction (WM115) | cleaved PARP positive nuclei fraction (WM1716) | cleaved PARP positive nuclei fraction (WM1745) | cleaved PARP positive nuclei fraction (WM3526) | cleaved PARP positive nuclei fraction (WM3619) | cleaved PARP positive nuclei fraction (WM451Lu)
O=C(Nc1cc(C(F)(F)F)cc(C(F)(F)F)c1)c1cc(Cl)ccc1O + COc1cc(Nc2ncc(F)c(Nc3ccc4c(n3)NC(=O)C(C)(C)O4)n2)cc(OC)c1OC [Tamatinib] (first compound 0.016 µM, partner dose 0.4 µM) | 153% | 137% | 176% | 55.4% | 99.8% | 131%
Cc1cc(Nc2cc(N3CCN(C)CC3)nc(Sc3ccc(NC(=O)C4CC4)cc3)n2)n[nH]1 [Tozasertib] + Cc1ccc(Nc2nccc(N(C)c3ccc4c(C)n(C)nc4c3)n2)cc1S(N)(=O)=O [Pazopanib] (first compound 0.006 µM, partner dose 0.4 µM) | 179% | 81.5% | 90.1% | 22% | 101% | 68.9%
CC[C@]1(O)C[C@H]2CN(CCc3c([nH]c4ccccc34)[C@@](C(=O)OC)(c3cc4c(cc3OC)N(C=O)[C@H]3[C@@](O)(C(=O)OC)[C@H](OC(C)=O)[C@]5(CC)C=CCN6CC[C@]43[C@@H]65)C2)C1 [vincristine] + Oc1cc(-c2nc(-c3ccccc3)[nH]c2-c2ccncc2)ccc1Cl [L779450] (first compound 0.0001 µM, partner dose 0.2 µM) | 234% | 143% | 96.4% | 127% | 154% | 59.7%
O=C(Nc1cc(C(F)(F)F)cc(C(F)(F)F)c1)c1cc(Cl)ccc1O + COc1ccc(Cl)c(Nc2nc3ccccc3nc2NS(=O)(=O)c2cccc(NC(=O)C(C)(C)N)c2)c1 [XL147] (first compound 0.016 µM, partner dose 0.8 µM) | 81.8% | 189% | 96.2% | 44.2% | 82.8% | 86.2%
O=c1[nH]nc(Sc2ncc([N+](=O)[O-])s2)n1-c1ccc2c(c1)OCCO2 + NCC(=O)Nc1ccc(-n2nc(C(F)(F)F)cc2-c2ccc3c(ccc4ccccc43)c2)cc1 [OSU03012] (first compound 0.2 µM, partner dose 1 µM) | 77.1% | 181% | 86.7% | 104% | 85.3% | 251%
N#CC[C@H](C1CCCC1)n1cc(-c2ncnc3[nH]ccc23)cn1 [ruxolitinib] + CCCCCCCCc1ccc(CCC(N)(CO)CO)cc1 [fingolimod] (first compound 1 µM, partner dose 2 µM) | 91% | 51.9% | 104% | 39.2% | 101% | 121%
Cc1ccc(Nc2nccc(N(C)c3ccc4c(C)n(C)nc4c3)n2)cc1S(N)(=O)=O [Pazopanib] + O=C(O)c1ccc2c(c1)nc(Nc1cccc(Cl)c1)c1ccncc12 [CX4945] (first compound 0.4 µM, partner dose 0.4 µM) | 125% | 80.6% | 82.1% | 38.9% | 78.6% | 65.2%
O=c1[nH]nc(Sc2ncc([N+](=O)[O-])s2)n1-c1ccc2c(c1)OCCO2 + Cc1cc([N+](=O)[O-])ccc1NS(=O)(=O)c1cc(Cl)ccc1Cl [FH535] (first compound 0.2 µM, partner dose 1 µM) | 124% | 310% | 93.3% | 119% | 73.6% | 152%
N#CC[C@H](C1CCCC1)n1cc(-c2ncnc3[nH]ccc23)cn1 [ruxolitinib] + NC(=O)Nc1cc(-c2cccc(F)c2)sc1C(=O)N[C@H]1CCCNC1 [AZD7762] (first compound 1 µM, partner dose 0.02 µM) | 77.3% | 107% | 88.4% | 201% | 157% | 143%
Cc1cc(Nc2cc(N3CCN(C)CC3)nc(Sc3ccc(NC(=O)C4CC4)cc3)n2)n[nH]1 [Tozasertib] + CC1(C)CCC(c2ccc(Cl)cc2)=C(CN2CCN(c3ccc(C(=O)NS(=O)(=O)c4ccc(N[C@H](CCN5CCOCC5)CSc5ccccc5)c(S(=O)(=O)C(F)(F)F)c4)cc3)CC2)C1 [ABT263] (first compound 0.006 µM, partner dose 0.4 µM) | 233% | 87.3% | 281% | 21.1% | 97.6% | 44.6%
O=C(/C=C/c1cccnc1)NCCCCC1CCN(C(=O)c2ccccc2)CC1 + Cn1cnc2c(F)c(Nc3ccc(Br)cc3Cl)c(C(=O)NOCCO)cc21 [selumetinib] (first compound 0.01 µM, partner dose 0.015 µM) | 73.1% | 74.4% | 102% | 44.2% | 110% | 59.3%

An excerpt of these results, as a markdown table:

| Compound | cleaved PARP positive nuclei fraction (WM115) | cleaved PARP positive nuclei fraction (WM1716) | cleaved PARP positive nuclei fraction (WM1745) | cleaved PARP positive nuclei fraction (WM3526) | cleaved PARP positive nuclei fraction (WM3619) | cleaved PARP positive nuclei fraction (WM451Lu) |
| --- | --- | --- | --- | --- | --- | --- |
| Cc1ccc(Nc2nccc(N(C)c3ccc4c(C)n(C)nc4c3)n2)cc1S(N)(=O)=O [Pazopanib] + O=C(O)c1ccc2c(c1)nc(Nc1cccc(Cl)c1)c1ccncc12 [CX4945] (first compound 0.4 µM, partner dose 0.4 µM) | 125% | 80.6% | 82.1% | 38.9% | 78.6% | 65.2% |
| Cc1cc(Nc2cc(N3CCN(C)CC3)nc(Sc3ccc(NC(=O)C4CC4)cc3)n2)n[nH]1 [Tozasertib] + CC1(C)CCC(c2ccc(Cl)cc2)=C(CN2CCN(c3ccc(C(=O)NS(=O)(=O)c4ccc(N[C@H](CCN5CCOCC5)CSc5ccccc5)c(S(=O)(=O)C(F)(F)F)c4)cc3)CC2)C1 [ABT263] (first compound 0.006 µM, partner dose 0.4 µM) | 233% | 87.3% | 281% | 21.1% | 97.6% | 44.6% |

From the supplement of paper PMC4604168 (melanoma cell lines)
